Consider 1 molecule from publication doi:10.1101/788778.

The chains behind the UniProt entries cited, without tags or fusion partners.
UniProt O14744: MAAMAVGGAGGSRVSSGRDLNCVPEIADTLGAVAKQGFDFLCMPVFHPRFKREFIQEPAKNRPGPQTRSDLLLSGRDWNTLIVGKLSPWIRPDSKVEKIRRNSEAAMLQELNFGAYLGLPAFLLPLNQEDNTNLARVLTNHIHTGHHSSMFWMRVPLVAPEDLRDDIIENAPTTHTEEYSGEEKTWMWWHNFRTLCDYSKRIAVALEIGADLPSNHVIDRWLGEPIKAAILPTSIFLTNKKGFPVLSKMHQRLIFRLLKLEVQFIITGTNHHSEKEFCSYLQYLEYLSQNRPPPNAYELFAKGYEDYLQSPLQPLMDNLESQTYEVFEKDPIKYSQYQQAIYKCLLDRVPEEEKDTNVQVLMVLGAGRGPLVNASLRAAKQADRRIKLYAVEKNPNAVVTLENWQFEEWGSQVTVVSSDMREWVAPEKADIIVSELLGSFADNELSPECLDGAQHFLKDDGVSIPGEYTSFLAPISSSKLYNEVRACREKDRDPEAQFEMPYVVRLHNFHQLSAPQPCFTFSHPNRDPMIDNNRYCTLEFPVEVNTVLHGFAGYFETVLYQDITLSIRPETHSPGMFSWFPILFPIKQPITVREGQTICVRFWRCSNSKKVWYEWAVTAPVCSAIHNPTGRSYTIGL
UniProt Q16637: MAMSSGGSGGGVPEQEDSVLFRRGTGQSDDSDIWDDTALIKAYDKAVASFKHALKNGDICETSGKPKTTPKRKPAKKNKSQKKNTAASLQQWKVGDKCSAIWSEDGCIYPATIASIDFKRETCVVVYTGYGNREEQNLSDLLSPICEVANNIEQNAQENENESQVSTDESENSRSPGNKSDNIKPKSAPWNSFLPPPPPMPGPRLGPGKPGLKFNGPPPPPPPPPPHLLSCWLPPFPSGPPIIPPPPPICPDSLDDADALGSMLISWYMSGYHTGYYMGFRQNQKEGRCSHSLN

Assay [1] has as its target PRMT5 (human (endogenous in HEK293)) (UniProt O14744). The assay can be described thus: co-IP.
For assay [2], the target named is SMN (human (endogenous in HEK293)) (UniProt Q16637). In words: co-IP.

These are yes or no findings as the source states them, for the method shown. Binding seen in cells or lysates may run through a third protein. Some binding calls cover weakened binding; strength is not graded here.

B1: XRN2 (protein, UniProt Q9H0D6 1-950)
chain: MGVPAFFRWLSRKYPSIIVNCVEEKPKECNGVKIPVDASKPNPNDVEFDNLYLDMNGIIHPCTHPEDKPAPKNEDEMMVAIFEYIDRLFSIVRPRRLLYMAIDGVAPRAKMNQQRSRRFRASKEGMEAAVEKQRVREEILAKGGFLPPEEIKERFDSNCITPGTEFMDNLAKCLRYYIADRLNNDPGWKNLTVILSDASAPGEGEHKIMDYIRRQRAQPNHDPNTHHCLCGADADLIMLGLATHEPNFTIIREEFKPNKPKPCGLCNQFGHEVKDCEGLPREKKGKHDELADSLPCAEGEFIFLRLNVLREYLERELTMASLPFTFDVERSIDDWVFMCFFVGNDFLPHLPSLEIRENAIDRLVNIYKNVVHKTGGYLTESGYVNLQRVQMIMLAVGEVEDSIFKKRKDDEDSFRRRQKEKRKRMKRDQPAFTPSGILTPHALGSRNSPGSQVASNPRQAAYEMRMQNNSSPSISPNTSFTSDGSPSPLGGIKRKAEDSDSEPEPEDNVRLWEAGWKQRYYKNKFDVDAADEKFRRKVVQSYVEGLCWVLRYYYQGCASWKWYYPFHYAPFASDFEGIADMPSDFEKGTKPFKPLEQLMGVFPAASGNFLPPSWRKLMSDPDSSIIDFYPEDFAIDLNGKKYAWQGVALLPFVDERRLRAALEEVYPDLTPEETRRNSLGGDVLFVGKHHPLHDFILELYQTGSTEPVEVPPELCHGIQGKFSLDEEAILPDQIVCSPVPMLRDLTQNTVVSINFKDPQFAEDYIFKAVMLPGARKPAAVLKPSDWEKSSNGRQWKPQLGFNRDRRPVHLDQAAFRTLGHVMPRGSGTGIYSNAAPPPVTYQGNLYRPLLRGQAQIPKLMSNMRPQDSWRGPPPLFQQQRFDRGVGAEPLLPWNRMLQTQNAAFQPNQYQMLAGPGGYPPRRDDRGGRQGYPREGRKYPLPPPSGRYNWN
B1: the binding result in assay [1] and in assay [2] was “binds” each time.
